Publication PMC9177545, “3-oxo-C12:2-HSL, quorum sensing molecule from human intestinal microbiota, inhibits pro-inflammatory pathways in immune cells via bitter taste receptors” (Scientific Reports, 2022)

System: RAW264.7 cells
Test: Transcriptomic analysis (RNA-seq) of activated RAW264.7 cells
Type: cell-based, murine
Settings: 50 µM, 2 h, LPS and IFNγ stimulated
Protocol: In RAW264.7 cells, inflammation was triggered with LPS (10 ng/mL, Sigma) and IFNγ (10 U/mL, R&Dsystems) for 2 h or 6 h, depending on the experiments. PBMC were exposed to LPS (10 ng/mL) and AHL for 24 h. For TAS2R38 inhibition experiments, cells were exposed to TAS2R38 allosteric inhibitor probenecid (1 mM, Sigma) for one hour before adding AHLs and the inflammatory cocktail, without changing the media.
Cells were treated for 2 h and then washed once with PBS before RNA extraction using RNeasy minikit (Qiagen), according to the manufacturer’s instructions. Briefly, cells were lysed and 1 volume of ethanol was added. The sample was transferred into a spin column and centrifuged at 8000g for 15 s. The column was washed several times and then eluted with water. RNA quality was assessed using NanoChip (Agilent) on a chip reader (Bioanalyzer 2100, Agilent).
After extraction, total RNA were qualified with the AGILENT tapeStation 2200. […] Final samples pooled into a library were sequenced on ILLUMINA Novaseq 6000, corresponding to 2 × 28 Millions of 100 bases reads per sample after demultiplexing.
FastQC v 0.11.9[62] was used for the quality control of raw paired-end fastq data set. Illumina’s adapters were removed from reads using cutadapt v2.10[63]. […] Salmon v 1.4.0[65] was used to quantify paired-end reads against a mapping-based index built from the Ensembl GRCm38 transcript set for all samples. […]

3-oxo-C12:2-HSL
number of genes down-regulated compared with control cells treated with DMSO: 736 genes | number of genes up-regulated compared with control cells treated with DMSO: 1140 genes
